In publication PMC10378191:
These are yes or no findings as the source states them, for the method shown. Binding seen in cells or lysates may run through a third protein. Some entries that bind do so weakly or less than the wild type. Values belong to the binder of their own block, whether it stands above or below them.

Legend:
[1] = target: T1, Chemoattractant receptor-homologous molecule expressed on Th2 cells (CRTH2), expressed from a plasmid in HEK293 cells (UniProt Q9Y5Y4); experiment: co-IP; HEK293 cells transfected with CRTH2 and PLSCR1 plasmids; lysates immunoprecipitated with anti-CRTH2 and blotted with anti-PLSCR1, or the opposite; Catch and Release V2.0
T1 sequence: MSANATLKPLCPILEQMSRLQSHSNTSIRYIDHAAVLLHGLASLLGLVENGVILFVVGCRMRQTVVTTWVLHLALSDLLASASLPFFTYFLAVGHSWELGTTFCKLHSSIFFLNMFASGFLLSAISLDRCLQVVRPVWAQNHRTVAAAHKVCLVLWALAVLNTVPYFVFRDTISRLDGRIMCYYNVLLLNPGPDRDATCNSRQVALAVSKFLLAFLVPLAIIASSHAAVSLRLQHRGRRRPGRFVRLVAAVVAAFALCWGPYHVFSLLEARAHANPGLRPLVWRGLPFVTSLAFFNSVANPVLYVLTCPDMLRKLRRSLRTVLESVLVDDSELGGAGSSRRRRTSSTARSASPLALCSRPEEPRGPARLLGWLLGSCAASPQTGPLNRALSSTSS

[2] = target: T2, Phospholipid scramblase-1 (Plscr1), endogenous in mouse lung (mouse (endogenous in lung)) (UniProt Q9JJ00); experiment: co-IP; mouse lung protein lysates (WT mice; also IL-13 Tg mice, where the interaction became weaker) immunoprecipitated with anti-CRTH2 and blotted with anti-PLSCR1, or the opposite; Catch and Release V2.0
T2 sequence: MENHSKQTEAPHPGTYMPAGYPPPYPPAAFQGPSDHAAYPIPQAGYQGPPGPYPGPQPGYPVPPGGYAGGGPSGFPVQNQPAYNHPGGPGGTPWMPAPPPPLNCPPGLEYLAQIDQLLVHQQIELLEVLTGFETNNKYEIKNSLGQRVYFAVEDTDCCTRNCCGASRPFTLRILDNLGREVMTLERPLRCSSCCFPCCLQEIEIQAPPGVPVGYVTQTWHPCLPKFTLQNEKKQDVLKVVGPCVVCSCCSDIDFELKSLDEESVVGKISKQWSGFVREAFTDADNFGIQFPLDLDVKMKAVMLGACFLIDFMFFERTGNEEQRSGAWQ

[3] = target: T3, Phospholipid scramblase-1 (PLSCR1), expressed from a plasmid in HEK293 cells (UniProt O15162); experiment: co-IP; HEK293 cells transfected with CRTH2 and PLSCR1 plasmids; lysates immunoprecipitated with anti-CRTH2 and blotted with anti-PLSCR1, or the opposite; Catch and Release V2.0
T3 sequence: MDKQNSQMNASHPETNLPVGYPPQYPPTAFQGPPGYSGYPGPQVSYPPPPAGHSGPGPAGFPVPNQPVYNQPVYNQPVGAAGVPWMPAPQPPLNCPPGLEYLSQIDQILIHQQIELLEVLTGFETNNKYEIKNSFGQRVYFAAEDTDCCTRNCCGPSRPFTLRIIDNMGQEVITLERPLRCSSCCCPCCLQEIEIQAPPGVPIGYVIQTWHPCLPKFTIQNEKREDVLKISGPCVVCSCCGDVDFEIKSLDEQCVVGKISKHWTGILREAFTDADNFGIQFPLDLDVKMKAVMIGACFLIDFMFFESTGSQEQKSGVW

[4] = target: T4, Chemoattractant receptor-homologous molecule expressed on Th2 cells (CRTH2), endogenous in mouse lung (mouse (endogenous in lung)) (UniProt Q9Z2J6); experiment: co-IP; mouse lung protein lysates (WT mice; also IL-13 Tg mice, where the interaction became weaker) immunoprecipitated with anti-CRTH2 and blotted with anti-PLSCR1, or the opposite; Catch and Release V2.0
T4 sequence: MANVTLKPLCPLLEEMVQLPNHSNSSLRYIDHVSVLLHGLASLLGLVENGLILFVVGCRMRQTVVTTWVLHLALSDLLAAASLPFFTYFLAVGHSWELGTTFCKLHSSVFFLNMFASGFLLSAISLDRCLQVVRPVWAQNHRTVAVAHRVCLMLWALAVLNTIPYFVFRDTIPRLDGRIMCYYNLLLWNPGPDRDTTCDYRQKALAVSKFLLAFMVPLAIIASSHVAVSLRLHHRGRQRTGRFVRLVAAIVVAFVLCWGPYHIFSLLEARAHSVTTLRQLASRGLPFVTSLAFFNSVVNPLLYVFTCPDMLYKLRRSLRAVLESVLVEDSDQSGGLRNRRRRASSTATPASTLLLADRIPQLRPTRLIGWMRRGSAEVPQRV

- binding [1]: binds
B1: Phospholipid scramblase-1 (PLSCR1), expressed from a plasmid in HEK293 cells (protein, UniProt O15162 1-318)
chain: MDKQNSQMNASHPETNLPVGYPPQYPPTAFQGPPGYSGYPGPQVSYPPPPAGHSGPGPAGFPVPNQPVYNQPVYNQPVGAAGVPWMPAPQPPLNCPPGLEYLSQIDQILIHQQIELLEVLTGFETNNKYEIKNSFGQRVYFAAEDTDCCTRNCCGPSRPFTLRIIDNMGQEVITLERPLRCSSCCCPCCLQEIEIQAPPGVPIGYVIQTWHPCLPKFTIQNEKREDVLKISGPCVVCSCCGDVDFEIKSLDEQCVVGKISKHWTGILREAFTDADNFGIQFPLDLDVKMKAVMIGACFLIDFMFFESTGSQEQKSGVW

- binding [2]: binds
B2: Chemoattractant receptor-homologous molecule expressed on Th2 cells (CRTH2), endogenous in mouse lung (receptor, UniProt Q9Z2J6 1-382)
chain: MANVTLKPLCPLLEEMVQLPNHSNSSLRYIDHVSVLLHGLASLLGLVENGLILFVVGCRMRQTVVTTWVLHLALSDLLAAASLPFFTYFLAVGHSWELGTTFCKLHSSVFFLNMFASGFLLSAISLDRCLQVVRPVWAQNHRTVAVAHRVCLMLWALAVLNTIPYFVFRDTIPRLDGRIMCYYNLLLWNPGPDRDTTCDYRQKALAVSKFLLAFMVPLAIIASSHVAVSLRLHHRGRQRTGRFVRLVAAIVVAFVLCWGPYHIFSLLEARAHSVTTLRQLASRGLPFVTSLAFFNSVVNPLLYVFTCPDMLYKLRRSLRAVLESVLVEDSDQSGGLRNRRRRASSTATPASTLLLADRIPQLRPTRLIGWMRRGSAEVPQRV

- binding [3]: binds
B3: Chemoattractant receptor-homologous molecule expressed on Th2 cells (CRTH2), expressed from a plasmid in HEK293 cells (receptor, UniProt Q9Y5Y4 1-395)
chain: MSANATLKPLCPILEQMSRLQSHSNTSIRYIDHAAVLLHGLASLLGLVENGVILFVVGCRMRQTVVTTWVLHLALSDLLASASLPFFTYFLAVGHSWELGTTFCKLHSSIFFLNMFASGFLLSAISLDRCLQVVRPVWAQNHRTVAAAHKVCLVLWALAVLNTVPYFVFRDTISRLDGRIMCYYNVLLLNPGPDRDATCNSRQVALAVSKFLLAFLVPLAIIASSHAAVSLRLQHRGRRRPGRFVRLVAAVVAAFALCWGPYHVFSLLEARAHANPGLRPLVWRGLPFVTSLAFFNSVANPVLYVLTCPDMLRKLRRSLRTVLESVLVDDSELGGAGSSRRRRTSSTARSASPLALCSRPEEPRGPARLLGWLLGSCAASPQTGPLNRALSSTSS

- binding [4]: binds
B4: Phospholipid scramblase-1 (Plscr1), endogenous in mouse lung (protein, UniProt Q9JJ00 1-328)
chain: MENHSKQTEAPHPGTYMPAGYPPPYPPAAFQGPSDHAAYPIPQAGYQGPPGPYPGPQPGYPVPPGGYAGGGPSGFPVQNQPAYNHPGGPGGTPWMPAPPPPLNCPPGLEYLAQIDQLLVHQQIELLEVLTGFETNNKYEIKNSLGQRVYFAVEDTDCCTRNCCGASRPFTLRILDNLGREVMTLERPLRCSSCCFPCCLQEIEIQAPPGVPVGYVTQTWHPCLPKFTLQNEKKQDVLKVVGPCVVCSCCSDIDFELKSLDEESVVGKISKQWSGFVREAFTDADNFGIQFPLDLDVKMKAVMLGACFLIDFMFFERTGNEEQRSGAWQ
